Measurements: paper PMC8546589

How the values were obtained:
[1] = molecular target: T1, Myc-NAP12 (E. histolytica) (UniProt C4M8H9); experiment: co-IP; anti-c-Myc agarose IP from whole-cell lysate of E. histolytica lines overexpressing the Myc-tagged protein, 2 h at 4°C; Western blot of the eluate (custom anti-EhAgo2-2, anti-actin, anti-histone 3)
T1 sequence: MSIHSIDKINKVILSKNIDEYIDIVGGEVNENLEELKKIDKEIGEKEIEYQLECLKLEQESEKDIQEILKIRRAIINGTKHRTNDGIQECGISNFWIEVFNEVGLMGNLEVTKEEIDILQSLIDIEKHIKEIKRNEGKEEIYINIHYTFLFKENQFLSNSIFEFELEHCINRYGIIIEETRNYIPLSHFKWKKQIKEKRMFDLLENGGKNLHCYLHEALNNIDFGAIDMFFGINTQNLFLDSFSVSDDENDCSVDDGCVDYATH

[2] = molecular target: T2, Myc-NAP07 (E. histolytica) (UniProt C4M608); experiment: as above
T2 sequence: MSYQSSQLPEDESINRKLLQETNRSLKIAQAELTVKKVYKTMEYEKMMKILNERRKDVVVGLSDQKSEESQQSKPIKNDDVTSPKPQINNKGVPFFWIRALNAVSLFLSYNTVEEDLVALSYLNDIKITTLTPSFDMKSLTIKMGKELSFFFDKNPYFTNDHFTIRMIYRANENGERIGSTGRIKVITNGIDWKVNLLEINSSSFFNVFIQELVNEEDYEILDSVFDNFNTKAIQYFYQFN

[3] = molecular target: T3, GST-NAP12 (E. histolytica) (UniProt C4M8H9); experiment: pull-down; GST-tagged bait bound from bacterial lysate to glutathione beads and washed; incubated with bacterial lysate containing the His-tagged prey, 15 min at room temperature then 1 h at 4°C; washed with GST-wash buffer (350 mM NaCl); eluted with glutathione; SDS-PAGE, Coomassie; only the target purified
T3 sequence: T1 sequence

[4] = molecular target: T4, GST-NAP07 (E. histolytica) (UniProt C4M608); experiment: as above
T4 sequence: T2 sequence

| Substance | binding [1] | binding [2] | binding [3] | binding [4] |
| --- | --- | --- | --- | --- |
| histone 3 | no binding | no binding | – | – |
| His-ERM-BP (E. histolytica) | – | – | no binding | no binding |

These are yes or no findings as the source states them, for the method shown. Binding seen in cells or lysates may run through a third protein. Sequences can lack the tags named with a protein.
